Data on 3 molecules can be found in paper PMC3591265.

Amino acid sequences for entries named in this document (tags omitted). A change or cut given only in a name is not applied to a line headed by its entry.
UniProt Q69KN0: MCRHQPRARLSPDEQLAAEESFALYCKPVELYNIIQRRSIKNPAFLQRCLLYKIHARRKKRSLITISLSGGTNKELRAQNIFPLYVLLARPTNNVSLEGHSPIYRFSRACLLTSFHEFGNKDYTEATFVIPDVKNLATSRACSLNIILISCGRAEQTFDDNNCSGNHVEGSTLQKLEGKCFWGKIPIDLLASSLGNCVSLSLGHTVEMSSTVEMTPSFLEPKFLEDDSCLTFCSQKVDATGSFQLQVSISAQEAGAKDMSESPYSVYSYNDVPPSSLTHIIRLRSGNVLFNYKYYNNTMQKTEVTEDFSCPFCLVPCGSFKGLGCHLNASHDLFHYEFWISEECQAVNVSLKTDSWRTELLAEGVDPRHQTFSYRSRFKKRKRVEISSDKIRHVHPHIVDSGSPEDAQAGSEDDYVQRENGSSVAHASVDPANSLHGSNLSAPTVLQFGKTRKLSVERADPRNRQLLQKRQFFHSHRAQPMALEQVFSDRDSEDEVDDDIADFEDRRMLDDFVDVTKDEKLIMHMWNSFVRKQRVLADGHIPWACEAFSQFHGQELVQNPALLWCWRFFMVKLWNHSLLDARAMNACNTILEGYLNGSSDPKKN
UniProt O64937: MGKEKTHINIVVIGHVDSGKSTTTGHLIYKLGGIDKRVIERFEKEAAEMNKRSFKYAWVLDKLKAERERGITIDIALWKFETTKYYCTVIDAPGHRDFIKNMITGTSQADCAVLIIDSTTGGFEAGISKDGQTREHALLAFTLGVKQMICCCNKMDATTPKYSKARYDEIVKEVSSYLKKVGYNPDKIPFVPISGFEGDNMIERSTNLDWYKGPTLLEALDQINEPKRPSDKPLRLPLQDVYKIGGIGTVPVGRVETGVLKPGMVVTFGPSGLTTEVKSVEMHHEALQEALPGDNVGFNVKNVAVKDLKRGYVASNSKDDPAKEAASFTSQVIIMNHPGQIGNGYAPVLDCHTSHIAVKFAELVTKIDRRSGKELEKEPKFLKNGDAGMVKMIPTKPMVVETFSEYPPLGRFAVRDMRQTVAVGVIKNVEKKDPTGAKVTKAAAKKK

To fix the notation:
B1: OsSET1 (protein, UniProt Q10MI4 1-895)
chain: MASSSSKASDSSSQRPKRPDQGPSGKDAAGLVALHGKLAQLKRQVQSTRLAAIKERVEANRKALQVHTCALFDVAAAAEVASRGAEGGNALSRGAAEGHRRFVGWDSASGPGERELVHVQEENLVAGTLVLSSSGGSGASHRTVVQLVKLPVVDKIPPYTTWIFLDKNQRMADDQSVGRRRIYYDPIVNEALICSESDDDVPEPEEEKHVFTEGEDQLIWKATQDHGLSREVLNVLCQFVDATPSEIEERSEVLFEKYEKQSQSSYKTDLQLFLDKTMDVALDSFDNLFCRRCLVFDCRLHGCSQNLVFPSEKQPYGHELDENKRPCGDQCYLRRREVYQDTCNDDRNACTTYNMDSRSSSLKVSATILSESEDSNRDEDNIKSTSIVETSRSKITNSEYADKSVTPPPGDASETENVSPDMPLRTLGRRKISKHASKSNDHSPDKRQKIYSSPFPFAMSVLNKQSVPEIGETCPDSIESAVDQLPSLDDPNKKISTKDMCAGSTTNTTENTLRDNNNNLFISNKEHSISHWSALERDLYLKGIEIFGKNSCLIARNLLSGLKTCMEVASYMYNNGAAMAKRPLSGKSILGDFAEAEQGYMEQDLVARTRICRRKGRARKLKYTWKSAGHPTVRKRIGDGKQWYTQYNPCGCQQMCGKDCACVENGTCCEKYCGCSKSCKNRFRGCHCAKSQCRSRQCPCFAASRECDPDVCRNCWVSCGDGSLGEPLARGDGYQCGNMKLLLKQQQRILLGKSDVAGWGAFIKNPVNRNDYLGEYTGELISHREADKRGKIYDRANSSFLFDLNEQYVLDAYRKGDKLKFANHSSNPNCYAKVMLVAGDHRVGIYAKDRIEASEELFYDYRYGPDQAPAWARRPEGSKKDEASVSHHRAHKVAR

No constants are given. Whether binding was seen depends on the method and setting. Binding seen in cells or lysates may run through a third protein. Here binding means that the protein was enriched with, or labelled near, the bait; the list need not be complete. No binding means not detected with the bait. Where a sequence is shown, tags or fusion partners need not be part of it.

In this assay the target is T1, N-terminal TAP-tagged OsFIE2 (Oryza sativa) (UniProt Q6ZJX0).
T1 sequence: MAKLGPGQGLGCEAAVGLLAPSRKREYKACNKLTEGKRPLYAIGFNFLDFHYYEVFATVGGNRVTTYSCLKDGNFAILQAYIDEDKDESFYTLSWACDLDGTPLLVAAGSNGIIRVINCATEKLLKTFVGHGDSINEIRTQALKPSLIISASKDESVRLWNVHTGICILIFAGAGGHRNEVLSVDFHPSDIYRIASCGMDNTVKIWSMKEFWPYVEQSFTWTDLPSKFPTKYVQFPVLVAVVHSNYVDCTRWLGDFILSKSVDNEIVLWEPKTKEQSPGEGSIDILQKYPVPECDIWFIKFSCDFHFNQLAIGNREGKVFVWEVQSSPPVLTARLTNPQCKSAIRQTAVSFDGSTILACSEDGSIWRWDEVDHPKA
In words: affinity purification with mass spectrometry; tandem affinity purification of N-terminal TAP-tagged OsFIE2 from rice cell suspension culture extract: IgG sepharose 1 h at 4°C, AcTEV elution, calmodulin-agarose 1 h at 4°C, EGTA elution; 150 mM NaCl, 0.1% IGEPAL, pH 8.0; LC-MS/MS of the eluate.
Turning to OsEMF2b (from UniProt Q69KN0), the binding result was “binds”.

Consider “elongation factor 1-alpha (from UniProt O64937 1-447)”, for which the binding result is listed as “no binding”.

As to B1, the binding entry is listed as “binds”.
